Screen size: about 340,000 compounds; about 170 (0.05%) were called active. Inconclusive means that the source gave no clear call. Such entries were picked first, then a sample of the others. The call rests on the fitted dose curve; in most records, active means well fitted inhibition curve with a large enough effect in the signal ratio, with a control signal flat (not every such curve was filed as active); inconclusive means small, poorly fitted or top-dose-only effect, or effect the other way, or a change in a side signal; inactive means flat fitted curve, though single readings scatter; the % refers to the signal ratio. Potencies beside an inconclusive call are fits to weak or partial responses and may not hold up.
Experiment: qHTS Assay to Find Inhibitors of Chronic Active B-Cell Receptor Signaling;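 on activity change, negative = inhibition: plate controls were basal doxycycline-induced cells for no effect and cells given 10 µM MG132 for full effect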
Details: ABC-DLBCL IkBa-CBG/CBR reporter, luminescence ratio (green luciferase fused to IkBa over red control in TMD8 lymphoma cells), 4 h; activity change, negative = inhibition: at 46.1 µM (top of the series)
Summary of the method: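 Doxycycline induced both beetle luciferases in TMD8 lymphoma cells; IKK-driven degradation limits the IkappaBalpha-fused green signal, while red luminescence normalises for cell number and nonspecific effects. Compounds tested up to 46 uM, 4 hrs.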
In the case of `COc1ccccc1/C=C/C(=O)NCC(=O)N/N=C/c1ccc(C(=O)O)cc1`, the activity change, negative = inhibition was inconclusive: -10.1%. For `O=C(Cc1ccc(Cl)cc1)NN1C(=O)c2ccccc2C1=O`, the activity change, negative = inhibition was “inactive”. For `Cc1cc(-n2nc(C)cc2C)n2ncc(-c3ccccc3)c2n1`, the activity change, negative = inhibition was inconclusive: 11.3%. For `COc1cccc(C(=O)NCCC2=CCCCC2)c1OC`, the activity change, negative = inhibition was inconclusive: 4.83%. With `COc1cccc(C(=O)Nc2ccc(NC(=O)c3ccco3)cn2)c1` the Potency was inconclusive: 10 µM [falling, partial curve]. In the case of `O=c1nc2c(-c3ccc(F)cc3Cl)n[nH]n2c2ccccc12`, the Potency was inconclusive: 15.8 µM [falling, partial curve]. With `Cc1cc(C(=O)NNC(=S)Nc2cccc(C(F)(F)F)c2)nn1C` the activity change, negative = inhibition was inconclusive: 17.5%. With `O=C(Nc1cccc(F)c1)c1ccc(S(=O)(=O)NCC2CCCO2)cc1` (stereo not drawn) the activity change, negative = inhibition was inconclusive: 0.725%. With `Cc1nn(-c2ccccc2)c2nc(N)c(C(N)=O)cc12` the activity change, negative = inhibition was inconclusive: 3.56%. With `Cc1cccc(C(=O)N2CCc3cc(CNC(=O)c4ccc(Br)o4)ccc32)c1` the activity change, negative = inhibition was “inactive”. With `COc1ccc(S(=O)(=O)N(C)C[C@H]2Oc3c(NS(=O)(=O)c4cn(C)cn4)cccc3C(=O)N([C@H](C)CO)C[C@@H]2C)cc1` the activity change, negative = inhibition was “inactive”. For `COc1cccc(C(c2nnnn2Cc2ccccc2)N2CCN(C(=O)c3ccco3)CC2)c1OC` (stereo not drawn), the activity change, negative = inhibition was inconclusive: 4.14%. In the case of `CC(C)NC(=O)c1ccc(C(C)C)cc1`, the activity change, negative = inhibition was inconclusive: 5.53%. For `CCOc1ccccc1NC(=O)C(c1ccccc1)N1CCN(CC(=O)N2CCOCC2)CC1` (stereo not drawn), the activity change, negative = inhibition was inconclusive: -2.58%. With `COC(=O)Cc1sc(-c2ccccn2)nc1-c1ccccc1` the activity change, negative = inhibition was “inactive”. With `CC(C)Oc1ccc(C(=O)NC2(C(F)(F)F)N=C3SCCN3C2=O)cc1` (stereo not drawn) the activity change, negative = inhibition was inconclusive: 21.9%. In the case of `Cc1ccc(NC(=O)c2ccc(OC(=O)COc3ccc(Cl)c(C)c3)cc2)cc1`, the Potency was inconclusive: 5.8 µM [falling, partial curve]. With `CC(=O)c1ccc(OCCNS(=O)(=O)c2ccc(-n3cnnn3)c(C)c2)cc1` the activity change, negative = inhibition was “inactive”. For `O=C(O)c1cc([N+](=O)[O-])ccc1N1CCCCC1`, the activity change, negative = inhibition was “inactive”. With `Cc1c(C(=O)NCc2ccco2)oc2c(F)cccc12` the Potency was inconclusive: 11.6 µM [falling, partial curve, poor fit]. With `CCn1c(CSCc2ccc(C)cc2)n[nH]c1=S` the activity change, negative = inhibition was “inactive”. With `CCSc1nc2ccc(C)cc2cc1C#N` the activity change, negative = inhibition was inconclusive: 2.6%. For `COc1ccc([N+](=O)[O-])cc1NC(=O)c1cccs1`, the activity change, negative = inhibition was inconclusive: 2.82%. In the case of `Cc1cc(C(=O)NNc2ccc(F)cc2)no1`, the activity change, negative = inhibition was “inactive”. In the case of `COc1cccc(C(=O)Oc2cc(N)n(S(=O)(=O)c3ccc(C)cc3)n2)c1OC`, the Potency was inconclusive: 22.4 µM [falling, partial curve]. For `C(=N\Nc1ccccn1)/c1ccc2c(c1)OCCO2`, the Potency was inconclusive: 35.5 µM [falling, single point]. With `O=C(COC(=O)c1ccccc1NC(=O)c1ccco1)NC1CCS(=O)(=O)C1` (stereo not drawn) the activity change, negative = inhibition was inconclusive: -16.4%. With `CCOc1ccc(NC(=O)COc2ccccc2C(=O)NCc2ccccc2)cc1` the activity change, negative = inhibition was inconclusive: -0.405%. With `Cc1ccc(Nc2nnc(SCC(=O)NC3CCCc4ccccc43)s2)cc1` (stereo not drawn) the activity change, negative = inhibition was inconclusive: 2.35%. With `CC1Sc2ccc(C(=O)Nc3ccccc3OC(F)F)cc2NC1=O` (stereo not drawn) the activity change, negative = inhibition was inconclusive: -10.5%. For `COc1cc(SSc2cc(OC)cc([N+](=O)[O-])c2N)c(N)c([N+](=O)[O-])c1`, the Potency was inconclusive: 12.6 µM [cytotoxic, partial curve]. With `CCOc1ccc(-c2c(C(=O)N/N=C/c3ccc(C)cc3)nnn2-c2nonc2N)cc1` the activity change, negative = inhibition was “inactive”. In the case of `COc1ccc(C)cc1S(=O)(=O)n1cnc2ccccc21`, the activity change, negative = inhibition was “inactive”. With `CN(CC1COc2ccccc2O1)C(=O)c1ccc(N(C)C)cc1` (stereo not drawn) the activity change, negative = inhibition was inconclusive: 0.529%. In the case of `O=C(Cc1ccccc1)n1nc(-c2ccco2)nc1SCc1ccccc1`, the Potency was inconclusive: 18.4 µM [falling, partial curve, poor fit]. With `Cc1ccccc1OCC(=O)OCC(=O)c1ccc(OC(=O)c2ccccc2)cc1` the activity change, negative = inhibition was “inactive”. With `CCCC[C@H](CN[C@@H](CNC)[C@H](C)CC)NCCC12CCC(CC1)C2` the Potency was inconclusive: 15.8 µM [falling, single point]. With `C=CCNC(=S)Nc1cccc([N+](=O)[O-])c1` the activity change, negative = inhibition was inconclusive: 4.84%. With `O=C(O)CN1C(=O)/C(=C/C=C/c2ccccc2)SC1=S` the activity change, negative = inhibition was “inactive”. In the case of `Cc1nn(-c2ccc(F)cc2)c(Cl)c1/C=N/NC(=O)c1ccc(O)cc1`, the Potency was inconclusive: 17.8 µM [falling, partial curve]. In the case of `Cc1ccc(Nc2cc(C)c(O)c(C)c2)cc1`, the activity change, negative = inhibition was “inactive”. For `CCOc1ccccc1NC(=O)C1C2C=CC(O2)C1C(=O)O` (stereo not drawn), the Potency was inconclusive: 18.4 µM [falling, single point]. In the case of `COc1ccc(C2CC(c3ccccc3)=NN2C(=O)COC(=O)c2ccc(Cl)nc2)cc1` (stereo not drawn), the activity change, negative = inhibition was inconclusive: 8.64%. With `Cc1cc(NC(=O)COc2cccc3cccnc23)no1` the Potency was inconclusive: 18.4 µM [falling, single point]. In the case of `Cc1ccc(-c2csc3ncnc(-n4nc(C)cc4N)c23)cc1`, the activity change, negative = inhibition was “inactive”. For `CCc1ccc(Nc2nnc(SCC(=O)NC(=O)c3cccn3C)s2)cc1`, the Potency was inconclusive: 5.01 µM [falling, partial curve, poor fit]. For `O=C(Nc1nccs1)c1ccc(NC(=O)C2CC=CCC2C(=O)O)cc1` (stereo not drawn), the activity change, negative = inhibition was inconclusive: 2.77%. In the case of `COc1c(F)c(F)c(C(=O)O)c(Nc2ccc(C)cc2C)c1F`, the activity change, negative = inhibition was inconclusive: 12.5%. With `O=C(O)c1cccnc1C(=O)O` the activity change, negative = inhibition was inconclusive: 19.5%. For `c1ccc(-c2nnc(SCc3nnc(-c4cccs4)o3)o2)cc1`, the Potency was inconclusive: 7.31 µM [falling, partial curve, poor fit]. With `C/C(=C\C(=O)c1ccncc1)Nc1ccccc1O` the Potency was inconclusive: 15.8 µM [falling, partial curve]. For `COc1ccccc1C(=O)CSc1nnc(-c2ccco2)o1`, the Potency was inconclusive: 15.8 µM [falling, partial curve]. With `COc1ccc(OC)c(C(=O)CN2C(=O)NC(C)(c3ccccc3)C2=O)c1` (stereo not drawn) the activity change, negative = inhibition was inconclusive: -3.46%.
Potency means the concentration at half of the fitted maximal effect.
